The record followed here is PMC2670831.

Assay [1] has as its target T1, GFP-tagged DNAJB13 (mouse) (UniProt Q80Y75).
T1 sequence: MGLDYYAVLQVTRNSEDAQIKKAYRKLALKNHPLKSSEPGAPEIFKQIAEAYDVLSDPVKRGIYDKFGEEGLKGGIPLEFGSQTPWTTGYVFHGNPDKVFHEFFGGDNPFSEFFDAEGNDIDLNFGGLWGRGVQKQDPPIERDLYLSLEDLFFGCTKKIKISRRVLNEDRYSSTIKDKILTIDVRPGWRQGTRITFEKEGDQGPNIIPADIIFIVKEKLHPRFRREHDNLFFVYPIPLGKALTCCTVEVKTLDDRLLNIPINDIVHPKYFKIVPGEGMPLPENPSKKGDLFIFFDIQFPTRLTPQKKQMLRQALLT
The assay can be described thus: co-IP; U2OS and CHO cell lines; data not shown.

Assay [2] has as its target T1, GFP-tagged DNAJB13 (mouse). The assay can be described thus: co-IP; HeLa S3 cells co-transfected with pEGFP-Dnajb13 and p3xFLAG-Sept4; lysed after 24 h in ELB buffer (50 mM Hepes pH 7.4, 0.25 M NaCl, 0.5 mM EDTA, 0.1% NP-40); IP with rabbit anti-GFP antibody or normal rabbit IgG and protein G beads at 4°C; immunoblotting with anti-FLAG and anti-GFP. Background: A western blot detects proteins with antibodies after separation by electrophoresis.

No constants are given. Whether binding was seen depends on the method and setting. Binding seen in cells or lysates may run through a third protein. Some binding calls cover weakened binding; strength is not graded here. Where a sequence is shown, tags or fusion partners need not be part of it.

B1: FLAG-tagged SEPT4 (protein, UniProt P28661-1 1-478)
chain: MDHSLGWQGNSVPEDGTEAGIKHFLEDSSDDAELSKFVKDFPGSEPYHSAESKTRVARPQILEPRPQSPDLCDDDVEFRGSLWPQPSDSQQYFSAPAPLSPSSRPRSPWGKLDPYDSSEDDKEYVGFATLPNQVHRKSVKKGFDFTLMVAGESGLGKSTLVNSLFLTDLYRDRKLLGAEERIMQTVEITKHAVDIEEKGVRLRLTIVDTPGFGDAVNNTECWKPVAEYIDQQFEQYFRDESGLNRKNIQDNRVHCCLYFISPFGHGLRPLDVEFMKALHQRVNIVPILAKADTLTPPEVDRKKCKIREEIEHFGIKIYQFPDCDSDEDEDFKLQDQALKESIPFAVIGSNTVVEARGRRVRGRLYPWGIVEVENPGHCDFVKLRTMLVRTHMQDLKDVTRETHYENYRAQCIQSMTRLVVKERNRNKLTRESGTDFPIPAVPPGTDPETEKLIREKDEELRRMQEMLHKIQRQMKETH
B1: the binding result in assay [1] and in assay [2] was “binds” throughout.
